Experimental data from patent US20160113911A1, “METHODS AND COMPOSITIONS FOR THE TREATMENT OF CANCER” (THE GENERAL HOSPITAL CORPORATION, priority 2013, published 2016).
Residue numbers refer to the chain shown, from its start. Names may count otherwise.

B1: D64N: KDM4D mutation (protein)
chain: METMKSKANCAQNPNCNIMIFHPTKEEFNDFDKYIAYMESQGAHRAGLAKIIPPKEWKARETYNNISEILIATPLQQVASGRAGVFTQYHKKKKAMTVGEYRHLANSKKYQTPPHQNFEDLERKYWKNRIYNSPIYGADISGSLFDENTKQWNLGHLGTIQDLLEKECGVVIEGVNTPYLYFGMWKTTFAWHTEDMDLYSINYLHLGEPKTWYVVPPEHGQRLERLARELFPGSSRGCGAFLRHKVALISPTVLKENGIPFNRITQEAGEFMVTFPYGYHAGFNHGFNCAEAINFATPRWIDYGKMASQCSCGEARVTFSMDAFVRILQPERYDLWKRGQDRAVVDHMEPRVPASQELSTQKEVQLPRRAALGLRQLPSHWARHSPWPMAARSGTRCHTLVCSSLPRRSAVSGTATQPRAAAVHSSKKPSSTPSSTPGPSAQIIHPSNGRRGRGRPPQKLRAQELTLQTPAKRPLLAGTTCTASGPEPEPLPEDGALMDKPVPLSPGLQHPVKASGCSWAPVP
B2: R82W: KDM4D mutation (protein)
chain: B1 chain with N64D, R82W

Assay: Subcellular localization of KDM4 variants (immunofluorescence)
Type: cell-based
Details: KDM4D mutations

Row | Molecule | Localization
1 | B1 | − (− indicates 20-39% nuclear)
2 | B2 | − (− indicates 20-39% nuclear)
